PubChem BioAssay AID662 (National Center for Advancing Translational Sciences (NCATS), 2007)
Some of the results follow. These are further read-outs of the screen, such as a control signal, another cell line or another target. No call is given for them. The list favours compounds with an active or inconclusive main result. The note in brackets gives the kind of curve behind each potency; many fits are weak.

experiment: Cell signaling CRE-BLA (Fsk stim); conditions: CHO CRE-bla reporter (cAMP response element driving beta-lactamase), forskolin EC10, beta-lactamase ratio; measured here: 460 nm blue channel
Outline: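 Forskolin analogue NKH 477 at EC10 stimulated CRE-driven beta-lactamase in CHO cells alongside compound dilution series. Beta-lactamase was measured with CCF4, excitation 405 nm, emission ratio 460/530 nm.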

| Compound | AC50 |
| --- | --- |
| O=C(CN(c1ccc2c(c1)OCCO2)S(=O)(=O)c1ccccc1)Nc1ccc2c(c1)OCO2 | 15.8 µM [falling, partial curve] |
| CCOC(=O)c1ccc2nc(C(F)(F)F)[nH]c(=O)c2c1 | 5.01 µM [rising, single point] |
| CC(=O)c1ccc(N2C(=NC(=O)C(C)C)SC3CS(=O)(=O)CC32)cc1 (stereo not given) | 25.1 µM [rising, single point] |
| COCCN1C(=O)c2oc3c(C)cc(C)cc3c(=O)c2C1c1cccc(O)c1 (stereo not given) | 10 µM [rising, partial curve] |
| c1ccc(-n2ncc3c(NCc4cccnc4)ncnc32)cc1 | 10 µM [rising, single point] |
| CCOCCCn1c(=NC(C)=O)c(C(=O)OCC)cc2c(=O)n3ccccc3nc21 | 12.6 µM [rising, partial curve] |
| O=C(C1CCC1)N1CCc2cc(S(=O)(=O)NCCN3CCN(c4ccccc4F)CC3)ccc21 | 0.251 µM [rising, full curve, poor fit] |
| O=C(NCc1ccc(N2CCCC2=O)cc1)c1cn(Cc2ccccc2)nn1 | 25.1 µM [rising, single point] |
| O=C(CC1Sc2ncnn2C1=O)Nc1ccc(Br)cc1 (stereo not given) | 12.6 µM [falling, partial curve] |
| COc1ccc(OC)c(S(=O)(=O)N2CCC(C(=O)Nc3cccc(C(F)(F)F)c3)CC2)c1 | 10 µM [falling, partial curve] |
| CC(=O)[C@@H]1[C@@H]2C(=O)N(c3ccc(F)c(Cl)c3)C(=O)[C@@H]2C2c3ccccc3C=CN21 (stereo not given in full) | 25.1 µM [rising, single point] |
| c1ccc(-c2nc(N3CCCCCC3)c3ccccc3n2)nc1 | 2.51 µM [rising, full curve] |
| CCCCNC(=O)C(c1ccc(OCC(=O)OC)c(C(=O)OC)c1)N(CCc1ccccn1)C(=O)CCCCCN1C(=O)NC(c2ccc(-c3ccccc3)cc2)C(C(=O)OCc2ccccc2)=C1C (stereo not given) | 3.16 µM [rising, partial curve] |
| CCOC(=O)CNc1c(-c2ccc(O)cc2)nc2ccc(Cl)cn12 | 0.1 µM [falling, full curve, poor fit] |
| c1coc(-c2nnc(SCc3cn4ccccc4n3)o2)c1 | 10 µM [rising, partial curve] |
| Cc1cc(-c2ccco2)c(C#N)c2nc3ccccc3n12 | 5.01 µM [rising, partial curve] |
| COc1ccc(C(=O)N2CCCC(c3nc(-c4cc(OC)c(OC)c(OC)c4)no3)C2)cc1 (stereo not given) | 12.6 µM [rising, partial curve] |
| CN(CC(=O)N1CCN(c2ccccc2)CC1)S(=O)(=O)c1cnc[nH]1 | 0.1 µM [falling, full curve] |
| O=C(NCc1ccc2c(c1)OCO2)c1ccc(COc2cccc(Cl)c2)o1 | 12.6 µM [falling, single point] |
| CCCCCCC1C(C#N)=C(N)OC2=C1C(=O)CC(C)(C)C2 (stereo not given) | 12.6 µM [rising, partial curve] |
| O=C(c1ccco1)N1CCN(C(=O)c2ccc(Cn3cc(Br)cn3)o2)CC1 | 0.02 µM [rising, full curve, poor fit] |
| CCCN1Cc2cccc(C(=O)NC3CCCC3)c2C1=O | 3.98 µM [falling, single point] |

| Compound | AC50 |
| --- | --- |
| O=c1cnc2cnc(OCc3ccccc3)nc2n1Cc1ccc(F)cc1 | 12.6 µM [rising, single point] |
| CCc1ccccc1NS(=O)(=O)c1ccc2[nH]cc(C(=O)NCC3CCCO3)c(=O)c2c1 (stereo not given) | 31.6 µM [falling, partial curve, poor fit] |
| COc1cc(-c2nc(-c3cccc(C)c3)no2)cc(OC)c1OC | 0.794 µM [rising, full curve] |
| COc1cc2c(cc1OC)CN(C(=O)c1ccccc1C(=O)O)CC2 | 12.6 µM [falling, partial curve] |
| O=C(Cn1ccc2ccccc2c1=O)NCCC(=O)N1CCN(C(=O)c2ccco2)CC1 | 25.1 µM [falling, single point] |
| COc1ccc(OC)c(-c2cc(C(=O)N3CCCc4ccccc43)no2)c1 | 10 µM [rising, partial curve] |
| COc1ccc(-c2cnnn2-c2ccc(NC(=O)c3ccco3)cc2)cc1OC | 10 µM [rising, partial curve] |
| Cc1ccc(S(=O)(=O)NCC2CCC(C(=O)NCCCN3CCOCC3)CC2)cc1 (stereo not given) | 0.00398 µM [falling, full curve, poor fit] |
| Cc1[nH]nc2c1-c1nc3ccccc3nc1C(C)(C)C2 | 0.316 µM [rising, partial curve, poor fit] |
| C=CCn1c(N)c(S(=O)(=O)c2cccs2)c2nc3ccccc3nc21 | 12.6 µM [rising, partial curve] |
| O=C(Nc1cccc(NC(=O)N2CCN(c3ccccc3)CC2)c1)N1CCN(c2ccccc2)CC1 | 12.6 µM [falling, single point] |
| Cn1c(=O)oc2cc(S(=O)(=O)N3CCCC(C(=O)N4CC=C(c5ccccc5)CC4)C3)ccc21 (stereo not given) | 10 µM [falling, single point] |
| O=C(CNS(=O)(=O)c1ccc(Br)s1)N1CCN(c2ncccn2)CC1 | 0.1 µM [falling, single point] |
| CN1[C@@H]2CC[C@H]1CC(OC(c1ccccc1)c1ccccc1)C2 (stereo not given in full) | 0.0251 µM [rising, full curve, poor fit] |
| O=C(NCCN1CCOCC1)c1cc(-c2ccc(Br)cc2)on1 | 25.1 µM [rising, single point] |
| NC(=O)Cn1c(=O)oc2ccccc21 | 0.251 µM [falling, single point] |
| COc1cccc(/C=N/n2c(-c3ccco3)nc3ccccc3c2=O)c1 | 2.51 µM [rising, full curve] |
| CC(C)C[C@H](NC(=O)OC(C)(C)C)C(=O)N1CCC(C(=O)N[C@@H](Cc2ccccc2)C(=O)O)CC1 | 3.16 µM [falling, full curve, poor fit] |
| COc1ccc(C(=O)Nc2cccc3c2C(=O)NC3=O)cc1S(=O)(=O)N1CCOCC1 | 2.51 µM [rising, full curve] |
| COc1ccc(C(=O)Cn2nnc(-c3ccccc3F)n2)cc1 | 5.01 µM [falling, single point] |
| CCS(=O)(=O)n1nc(-c2ccc(OC)cc2)nc1SC | 15.8 µM [rising, single point] |
| COc1cc2c(cc1OC)-c1cc(NC3CCCCCC3)nc(=O)n1CC2 | 0.501 µM [rising, full curve] |

Exported with bars between the fields: entries from further up
Compound | AC50
COc1cc2c(cc1OC)CN(C(=O)c1ccccc1C(=O)O)CC2 | 12.6 µM [falling, partial curve]
O=C(Cn1ccc2ccccc2c1=O)NCCC(=O)N1CCN(C(=O)c2ccco2)CC1 | 25.1 µM [falling, single point]
COc1ccc(OC)c(-c2cc(C(=O)N3CCCc4ccccc43)no2)c1 | 10 µM [rising, partial curve]
COc1ccc(-c2cnnn2-c2ccc(NC(=O)c3ccco3)cc2)cc1OC | 10 µM [rising, partial curve]
Cc1ccc(S(=O)(=O)NCC2CCC(C(=O)NCCCN3CCOCC3)CC2)cc1 (stereo not given) | 0.00398 µM [falling, full curve, poor fit]
Cc1[nH]nc2c1-c1nc3ccccc3nc1C(C)(C)C2 | 0.316 µM [rising, partial curve, poor fit]
C=CCn1c(N)c(S(=O)(=O)c2cccs2)c2nc3ccccc3nc21 | 12.6 µM [rising, partial curve]
O=C(Nc1cccc(NC(=O)N2CCN(c3ccccc3)CC2)c1)N1CCN(c2ccccc2)CC1 | 12.6 µM [falling, single point]
Cn1c(=O)oc2cc(S(=O)(=O)N3CCCC(C(=O)N4CC=C(c5ccccc5)CC4)C3)ccc21 (stereo not given) | 10 µM [falling, single point]
O=C(CNS(=O)(=O)c1ccc(Br)s1)N1CCN(c2ncccn2)CC1 | 0.1 µM [falling, single point]
CN1[C@@H]2CC[C@H]1CC(OC(c1ccccc1)c1ccccc1)C2 (stereo not given in full) | 0.0251 µM [rising, full curve, poor fit]
O=C(NCCN1CCOCC1)c1cc(-c2ccc(Br)cc2)on1 | 25.1 µM [rising, single point]
NC(=O)Cn1c(=O)oc2ccccc21 | 0.251 µM [falling, single point]
COc1cccc(/C=N/n2c(-c3ccco3)nc3ccccc3c2=O)c1 | 2.51 µM [rising, full curve]
CC(C)C[C@H](NC(=O)OC(C)(C)C)C(=O)N1CCC(C(=O)N[C@@H](Cc2ccccc2)C(=O)O)CC1 | 3.16 µM [falling, full curve, poor fit]
COc1ccc(C(=O)Nc2cccc3c2C(=O)NC3=O)cc1S(=O)(=O)N1CCOCC1 | 2.51 µM [rising, full curve]
COc1ccc(C(=O)Cn2nnc(-c3ccccc3F)n2)cc1 | 5.01 µM [falling, single point]

More entries:

| Compound | AC50 |
| --- | --- |
| CCOC(=O)c1c(NC(=O)c2nn(CC)cc2Br)c(C#N)cn1-c1ccccc1 | 2 µM [rising, full curve] |
| COC(=O)c1ccc(C)c(NC(=O)c2c(-c3ccccc3)noc2C)c1 | 2 µM [falling, partial curve] |
| CCN1c2ccccc2-c2nc3ccccc3n2C1c1cccnc1 (stereo not given) | 12.6 µM [rising, partial curve] |
| CN(C(=O)c1cccc(C#N)c1)c1nnc(-c2ccccn2)s1 | 25.1 µM [falling, single point] |
| CCNc1ncc2nc(-c3ccccc3)c(=O)n(C[C@H]3CCCO3)c2n1 | 10 µM [rising, partial curve] |
| Cc1ccc2c(c1)c(C)c(C)n2CC(O)CN1CCOCC1 (stereo not given) | 2 µM [rising, single point] |
| COc1ccccc1Nc1nc(N)nc(CN2CCN(c3ccccc3)CC2)n1 | 3.98 µM [falling, single point] |
| CC(O)c1nc2ccc(Cc3ccc4nc(C(C)O)[nH]c4c3)cc2[nH]1 (stereo not given) | 0.00398 µM [falling, full curve, poor fit] |
| CC(=O)c1c(C)[nH]c(C(=O)OCC(=O)Nc2cc(C(F)(F)F)ccc2N2CCOCC2)c1C | 12.6 µM [rising, single point] |
| CCn1c(SCC(=O)NCCOC)nc2sc(C)c(C)c2c1=O | 10 µM [rising, partial curve] |
| Cc1noc(C)c1-c1nccc(N(C)C)n1 | 25.1 µM [rising, partial curve] |
| COc1cccc(C(=O)OCC(=O)Nc2ccccc2N2CCOCC2)c1 | 25.1 µM [rising, single point] |
| CCC(=O)Nc1ccc(S(=O)(=O)N2CCc3ccccc3C2)cc1 | 3.16 µM [falling, full curve] |
| Cc1nc2ccccc2c2nc(NC(=O)Cc3ccccc3)nn12 | 10 µM [rising, partial curve] |
| NCCOB(c1ccccc1)c1ccccc1 | 25.1 µM [falling, partial curve, poor fit] |
| CCOc1ccccc1Oc1c(C)oc2c(CN3CCN(C)CC3)c(O)ccc2c1=O | 5.01 µM [falling, single point] |
| O=C(CSc1nnc(-c2ccc(Cl)cc2)n1Cc1ccco1)c1cccs1 | 20 µM [falling, single point] |
| COc1cccc(Cn2c(=O)c(-c3cccs3)nc3cnc(OC)nc32)c1 | 5.01 µM [rising, partial curve] |
| CN(C)CCCNc1oc(-c2ccc(Cl)cc2)nc1C#N | 25.1 µM [rising, single point] |
| CN1/C(=C\C(=O)COC(=O)C2COc3ccccc3O2)C(C)(C)c2ccccc21 (stereo not given) | 10 µM [rising, single point] |
| O=C(Cc1cc(=O)[nH]c(=O)[nH]1)N1CCC(Cc2ccccc2)CC1 | 7.94 µM [rising, partial curve] |
